Experimental data reported in PubChem BioAssay AID248 (DTP/NCI, 2004).
The list is a part of this screen's results and no random one: it is rich in T/C values a quarter to a half above the control, in often repeated tests (any T/C) and in doses without a T/C. Further doses and runs are listed elsewhere. T/C gives the treated animals as a percentage of the vehicle group. Some entries give survivors of the animals treated and no T/C: the source files T/C as zero there, which appears to mark a toxic dose or a test without result, not a measured value. Some doses without a T/C left all or most animals alive at the check, yet need not have been tolerated: the source hardly ever lists a survival T/C far under the control, and the zero likely stands for such cases as well. Counts of survivors are from the toxicity check (mostly the fifth day) where no day follows; animals may have died later. Schedules are NCI's codes, read here as Q, the interval in days (D) or hours (H), X, the number of doses. Some entries were tested several times; the values are given in rising order. For survival time, the PubChem record calls one and a half times the control and up active, and a quarter to a half above the control has no call in these data; cut-offs in other NCI protocols can differ. Some T/C values are followed by the survivors on the day toxicity was checked, most often the fifth; without a count, all were alive then.

Test system: L1210 leukemia ip in BDF1 mice, survival T/C
Assay: NCI In Vivo Anticancer Drug Screen. Data for tumor model L1210 Leukemia (intraperitoneal) in B6D2F1 (BDF1) mice
Conditions: T/C endpoint: mean survival time, higher T/C = longer survival
[1] = dose: 200.0 mg/kg/injection, schedule: Q01DX001 (ip), vehicle: saline
[2] = dose: 400.0 mg/kg/injection, schedule: Q01DX001 (ip), vehicle: saline
[3] = dose: 100.0 mg/kg/injection, schedule: Q04DX003 (ip), vehicle: carboxymethylcellulose (CMC)
[4] = dose: 400.0 mg/kg/injection, schedule: Q04DX002 (ip), vehicle: Klucel (hydroxypropylcellulose) (HPC)
[5] = dose: 100.0 mg/kg/injection, schedule: Q01DX009 (ip), vehicle: water
[6] = dose: 200.0 mg/kg/injection, schedule: Q04DX003 (ip), vehicle: water
[7] = dose: 400.0 mg/kg/injection, schedule: Q04DX003 (ip), vehicle: water
[8] = dose: 300.0 mg/kg/injection, schedule: Q01DX001 (ip), vehicle: saline
[9] = dose: 100.0 mg/kg/injection, schedule: Q01DX009 (ip), vehicle: Klucel (hydroxypropylcellulose) (HPC)
[10] = dose: 400.0 mg/kg/injection, schedule: Q04DX003 (ip), vehicle: Klucel (hydroxypropylcellulose) (HPC)
[11] = dose: 400.0 mg/kg/injection, schedule: Q01DX009 (ip), vehicle: Klucel (hydroxypropylcellulose) (HPC)
[12] = dose: 100.0 mg/kg/injection, schedule: Q04DX003 (ip), vehicle: Klucel (hydroxypropylcellulose) (HPC)
[13] = dose: 200.0 mg/kg/injection, schedule: Q04DX003 (ip), vehicle: Klucel (hydroxypropylcellulose) (HPC)
[14] = dose: 200.0 mg/kg/injection, schedule: Q01DX009 (ip), vehicle: Klucel (hydroxypropylcellulose) (HPC)
[15] = dose: 200.0 mg/kg/injection, schedule: Q04DX002 (ip), vehicle: Klucel (hydroxypropylcellulose) (HPC)
[16] = dose: 100.0 mg/kg/injection, schedule: Q04DX003 (ip), vehicle: saline with Tween-80
[17] = dose: 200.0 mg/kg/injection, schedule: Q04DX003 (ip), vehicle: saline with Tween-80
[18] = dose: 400.0 mg/kg/injection, schedule: Q04DX003 (ip), vehicle: saline with Tween-80

Which survivor count (dose: 4.0 mg/kg/injection, schedule: Q01DX009 (ip), vehicle: Klucel (hydroxypropylcellulose) (HPC)) does the source give for CC(C)n1c2c([n+](C)c1/C=C/c1ccccc1)C(=O)c1ccccc1C2=O here?
The survivor count was 1 of 6.

What about the survivor count (dose: 8.0 mg/kg/injection, schedule: Q04DX003 (ip), vehicle: Klucel (hydroxypropylcellulose) (HPC)) of the same compound?
Its survivor count is 0 of 6.

And the survivor count (dose: 10.0 mg/kg/injection, schedule: Q01DX001 (ip), vehicle: saline)?
The survivor count was 1 of 4.

What about the survivor count (dose: 20.0 mg/kg/injection, schedule: Q01DX001 (ip), vehicle: saline) of the same compound?
Its survivor count is 0 of 4.

And the survivor count (dose: 40.0 mg/kg/injection, schedule: Q01DX001 (ip), vehicle: saline)?
The survivor count was 0 of 4.

What about the survivor count (dose: 50.0 mg/kg/injection, schedule: Q01DX001 (ip), vehicle: saline) of the same compound?
Its survivor count is 1 of 4.

And the survivor count (dose: 80.0 mg/kg/injection, schedule: Q01DX001 (ip), vehicle: saline)?
Its survivor count is 0 of 4.

And the survivor count (dose: 100.0 mg/kg/injection, schedule: Q01DX001 (ip), vehicle: saline)?
Its survivor count is 1 of 4.

And the survivor count [1]?
The survivor count was 0 of 4.

What about the survivor count [2] of the same compound?
The survivor count was 0 of 4.

Which survivor count (dose: 400.0 mg/kg/injection, schedule: Q01DX001 (ip), vehicle: saline with Tween-80) does the source give for CN1CCC(OC(=O)N(c2ccccc2)c2ccccc2)CC1 here?
Its survivor count is 0 of 6.

Which survivor count [1] does the source give for CNC1CC2CCC(C2)C1(O)c1ccccc1 (stereo not drawn) here?
The survivor count was 0 of 6.

And the survivor count [2]?
Its survivor count is 0 of 6.

Which survivor count [3] does the source give for CCCCCCCCN(NC(=O)c1ccccc1)S(=O)(=O)c1ccccc1 here?
The survivor count was 3 of 6.

And the survivor count (dose: 200.0 mg/kg/injection, schedule: Q01DX009 (ip), vehicle: carboxymethylcellulose (CMC))?
The survivor count was 0 of 3 and 0 of 6.

How did the survivor count [3] turn out when O=C(Oc1ccc([N+](=O)[O-])cc1)c1cccc(S(=O)(=O)F)c1 was run?
The survivor count was 1 of 1.

C=CCNC(=O)/C=C\C(=O)O was tested. Which survivor count [4] did it give?
The survivor count was 3 of 3.

For C[n+]1c(-c2ccc(Cl)cc2Cl)c2cc([N+](=O)[O-])ccc2c2ccccc21, which survivor count (dose: 50.0 mg/kg/injection, schedule: Q04DX003 (ip), vehicle: water) is on record?
The survivor count was 3 of 6.

What about the survivor count [5] of the same compound?
The survivor count was 2 of 6.

And the survivor count [6]?
The survivor count was 0 of 6.

And the survivor count [7]?
The survivor count was 1 of 6.

c1ccc2c(c1)ccc1c[s+]ccc12 was tested. Which survivor count (dose: 400.0 mg/kg/injection, schedule: Q04DX003 (ip), vehicle: acetone) did it give?
Its survivor count is 1 of 6.

CC1=CCS(=O)(=O)C1 was tested. Which survivor count (dose: 400.0 mg/kg/injection, schedule: Q04DX003 (ip), vehicle: saline) did it give?
Its survivor count is 0 of 6.

How did the survivor count (dose: 50.0 mg/kg/injection, schedule: Q01DX009 (ip), vehicle: saline with Tween-80) turn out when Cc1cc(C)c(C(Br)C(Br)c2c(C)cc(C)cc2C)c(C)c1 (stereo not drawn) was run?
Its survivor count is 6 of 6.

COc1ccc2c(c1O)[C@]13CCN(C)[C@H](C2)[C@@H]1CCC(=O)C3 was tested. Which survivor count [8] did it give?
Its survivor count is 0 of 6.

Which survivor count [9] does the source give for O=C(O)c1ccccc1C(=O)Nc1ccccc1F here?
Its survivor count is 6 of 6.

Which survivor count [10] does the source give for CCCC1=C(CCC)C1C(=O)O here?
The survivor count was 3 of 6.

Which survivor count [11] does the source give for CCOc1ccc(N2CSC(=S)N(c3ccc(OCC)cc3)C2)cc1 here?
The survivor count was 4 of 6.

Which survivor count (dose: 25.0 mg/kg/injection, schedule: Q04DX003 (ip), vehicle: Klucel (hydroxypropylcellulose) (HPC)) does the source give for C=CCNC(=S)NN here?
The survivor count was 0 of 6 and 2 of 6.

What about the survivor count (dose: 50.0 mg/kg/injection, schedule: Q04DX003 (ip), vehicle: Klucel (hydroxypropylcellulose) (HPC)) of the same compound?
Its survivor count is 0 of 6.

What about the survivor count [12] of the same compound?
The survivor count was 0 of 6.

What about the survivor count [13] of the same compound?
The survivor count was 0 of 6.

What about the survivor count [10] of the same compound?
Its survivor count is 0 of 6.

CC(C)CCC(CCC(C)C)NCC(C)OC(=O)c1ccc(N)cc1 (stereo not drawn) was tested. Which survivor count (dose: 300.0 mg/kg/injection, schedule: Q01DX001 (ip), vehicle: carboxymethylcellulose (CMC)) did it give?
The survivor count was 0 of 6.

CS(=O)(=O)C(=C(N1CCCCC1)N1CCCCC1)S(=O)(=O)Cc1ccccc1 was tested. Which survivor count (dose: 400.0 mg/kg/injection, schedule: Q01DX009 (ip), vehicle: saline) did it give?
Its survivor count is 6 of 6.

C=C(c1ccccc1)[P+](c1ccccc1)(c1ccccc1)c1ccccc1 was tested. Which survivor count (dose: 30.0 mg/kg/injection, schedule: Q01DX001 (ip), vehicle: saline) did it give?
Its survivor count is 0 of 6.

What about the survivor count (dose: 60.0 mg/kg/injection, schedule: Q01DX001 (ip), vehicle: saline) of the same compound?
The survivor count was 0 of 6.

And the survivor count (dose: 75.0 mg/kg/injection, schedule: Q01DX001 (ip), vehicle: saline)?
Its survivor count is 0 of 6.

And the survivor count (dose: 150.0 mg/kg/injection, schedule: Q01DX001 (ip), vehicle: saline)?
The survivor count was 0 of 6.

And the survivor count [8]?
The survivor count was 0 of 6.

Which survivor count [11] does the source give for CC(=O)OI(OC(C)=O)c1ccccc1 here?
The survivor count was 1 of 6.

Which survivor count [4] does the source give for NNC(=O)CNc1cccc(F)c1 here?
Its survivor count is 0 of 3.

Which survivor count [12] does the source give for Cc1ccc(S(=O)(=O)N(C)c2cc(Cl)c(C#N)c(Cl)c2)cc1 here?
The survivor count was 6 of 6.

For Cc1ccc2c(c1)N(CCCN(C)C)c1ccccc1S2, which T/C (dose: 50.0 mg/kg/injection, schedule: Q04DX003 (ip), vehicle: saline) is on record?
Its T/C is 135 % of control [4 of 6 alive].

What does the source list for NN=C1CCC(=NN)CC1?
survivor count [5]: 6 of 6; survivor count (dose: 150.0 mg/kg/injection, schedule: Q01DX009 (ip), vehicle: water): 0 of 6; survivor count [6]: 2 of 6; survivor count [7]: 1 of 6

What does the source list for Cc1ccc(C)c(CN(C)C)c1O?
survivor count [14]: 0 of 6; survivor count [13]: 6 of 6; survivor count [10]: 6 of 6

NC(=Nc1ccccc1)c1ccc(Cl)cc1 was tested. Which survivor count [15] did it give?
The survivor count was 3 of 3.

And the survivor count [4]?
The survivor count was 2 of 3.

C=CCNC(=O)Nc1ncc([N+](=O)[O-])s1 was tested. Which survivor count [9] did it give?
The survivor count was 2 of 3.

And the survivor count (dose: 100.0 mg/kg/injection, schedule: Q04DX002 (ip), vehicle: Klucel (hydroxypropylcellulose) (HPC))?
The survivor count was 3 of 3.

And the survivor count [15]?
Its survivor count is 3 of 3.

And the survivor count [4]?
Its survivor count is 3 of 3.

What does the source list for CC[N+](CC)=C1SCCCS1?
survivor count [16]: 1 of 3; survivor count [17]: 0 of 3; survivor count [18]: 0 of 3

For Cc1ccc([N+](=O)[O-])cc1NC(=O)Nc1ccc(CCO)cc1, which survivor count [11] is on record?
The survivor count was 5 of 6.

NC(N)=N/C(N)=N\c1nn[nH]n1 was tested. Which survivor count (dose: 200.0 mg/kg/injection, schedule: Q01DX009 (ip), vehicle: saline sonified) did it give?
Its survivor count is 5 of 6.

What does the source list for N#CCc1ccc(-c2ccccc2)cc1?
survivor count (dose: 25.0 mg/kg/injection, schedule: Q04DX003 (ip), vehicle: saline with Tween-80): 6 of 6; survivor count [16]: 2 of 6; survivor count [17]: 0 of 6; survivor count [18]: 0 of 6

Which survivor count [10] does the source give for O=C(O)/C(=C\C#Cc1ccccc1)c1ccccc1 here?
The survivor count was 3 of 6.

Which survivor count [14] does the source give for O=C(Nc1cccc(C(F)(F)F)c1)Nc1cc([N+](=O)[O-])ccc1Cl here?
The survivor count was 6 of 6.
